The other results are listed elsewhere or left out. Most values lie at the level of the controls, where differences are scatter.

The chains behind the UniProt entries cited, without tags or fusion partners. Where a name states a change or a piece, a line headed by the entry shows the natural chain unless it says otherwise.
UniProt Q8TCD1: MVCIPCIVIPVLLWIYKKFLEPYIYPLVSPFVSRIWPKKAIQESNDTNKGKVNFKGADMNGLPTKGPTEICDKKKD
UniProt Q8TBY9: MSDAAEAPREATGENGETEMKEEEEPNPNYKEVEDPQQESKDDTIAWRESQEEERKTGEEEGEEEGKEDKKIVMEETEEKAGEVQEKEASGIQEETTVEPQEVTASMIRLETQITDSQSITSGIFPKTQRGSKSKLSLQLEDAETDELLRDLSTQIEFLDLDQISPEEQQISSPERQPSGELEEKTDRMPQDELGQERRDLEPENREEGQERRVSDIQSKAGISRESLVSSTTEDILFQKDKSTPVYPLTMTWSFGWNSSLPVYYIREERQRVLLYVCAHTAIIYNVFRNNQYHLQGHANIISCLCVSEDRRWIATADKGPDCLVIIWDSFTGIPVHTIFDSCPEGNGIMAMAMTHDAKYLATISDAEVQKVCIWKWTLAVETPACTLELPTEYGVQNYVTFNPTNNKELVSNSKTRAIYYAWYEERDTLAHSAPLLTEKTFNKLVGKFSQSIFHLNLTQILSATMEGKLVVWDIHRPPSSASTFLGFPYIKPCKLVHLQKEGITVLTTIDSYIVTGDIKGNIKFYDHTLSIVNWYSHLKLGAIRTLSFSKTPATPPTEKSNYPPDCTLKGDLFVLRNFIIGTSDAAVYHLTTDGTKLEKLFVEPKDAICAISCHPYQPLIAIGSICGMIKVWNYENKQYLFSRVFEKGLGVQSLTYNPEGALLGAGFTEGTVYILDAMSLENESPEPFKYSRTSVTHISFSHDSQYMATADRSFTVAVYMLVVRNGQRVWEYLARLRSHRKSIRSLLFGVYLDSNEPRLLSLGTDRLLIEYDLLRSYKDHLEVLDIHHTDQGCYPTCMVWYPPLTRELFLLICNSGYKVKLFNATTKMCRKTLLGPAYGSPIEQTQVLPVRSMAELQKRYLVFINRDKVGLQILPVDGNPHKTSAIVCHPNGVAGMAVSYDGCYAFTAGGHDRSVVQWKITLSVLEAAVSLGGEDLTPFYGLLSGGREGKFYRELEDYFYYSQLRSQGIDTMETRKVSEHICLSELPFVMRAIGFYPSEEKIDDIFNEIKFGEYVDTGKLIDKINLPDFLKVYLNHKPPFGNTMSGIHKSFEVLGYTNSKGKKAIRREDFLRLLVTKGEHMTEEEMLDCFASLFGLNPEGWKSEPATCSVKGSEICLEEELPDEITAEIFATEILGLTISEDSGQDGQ
UniProt Q92547, whole entry: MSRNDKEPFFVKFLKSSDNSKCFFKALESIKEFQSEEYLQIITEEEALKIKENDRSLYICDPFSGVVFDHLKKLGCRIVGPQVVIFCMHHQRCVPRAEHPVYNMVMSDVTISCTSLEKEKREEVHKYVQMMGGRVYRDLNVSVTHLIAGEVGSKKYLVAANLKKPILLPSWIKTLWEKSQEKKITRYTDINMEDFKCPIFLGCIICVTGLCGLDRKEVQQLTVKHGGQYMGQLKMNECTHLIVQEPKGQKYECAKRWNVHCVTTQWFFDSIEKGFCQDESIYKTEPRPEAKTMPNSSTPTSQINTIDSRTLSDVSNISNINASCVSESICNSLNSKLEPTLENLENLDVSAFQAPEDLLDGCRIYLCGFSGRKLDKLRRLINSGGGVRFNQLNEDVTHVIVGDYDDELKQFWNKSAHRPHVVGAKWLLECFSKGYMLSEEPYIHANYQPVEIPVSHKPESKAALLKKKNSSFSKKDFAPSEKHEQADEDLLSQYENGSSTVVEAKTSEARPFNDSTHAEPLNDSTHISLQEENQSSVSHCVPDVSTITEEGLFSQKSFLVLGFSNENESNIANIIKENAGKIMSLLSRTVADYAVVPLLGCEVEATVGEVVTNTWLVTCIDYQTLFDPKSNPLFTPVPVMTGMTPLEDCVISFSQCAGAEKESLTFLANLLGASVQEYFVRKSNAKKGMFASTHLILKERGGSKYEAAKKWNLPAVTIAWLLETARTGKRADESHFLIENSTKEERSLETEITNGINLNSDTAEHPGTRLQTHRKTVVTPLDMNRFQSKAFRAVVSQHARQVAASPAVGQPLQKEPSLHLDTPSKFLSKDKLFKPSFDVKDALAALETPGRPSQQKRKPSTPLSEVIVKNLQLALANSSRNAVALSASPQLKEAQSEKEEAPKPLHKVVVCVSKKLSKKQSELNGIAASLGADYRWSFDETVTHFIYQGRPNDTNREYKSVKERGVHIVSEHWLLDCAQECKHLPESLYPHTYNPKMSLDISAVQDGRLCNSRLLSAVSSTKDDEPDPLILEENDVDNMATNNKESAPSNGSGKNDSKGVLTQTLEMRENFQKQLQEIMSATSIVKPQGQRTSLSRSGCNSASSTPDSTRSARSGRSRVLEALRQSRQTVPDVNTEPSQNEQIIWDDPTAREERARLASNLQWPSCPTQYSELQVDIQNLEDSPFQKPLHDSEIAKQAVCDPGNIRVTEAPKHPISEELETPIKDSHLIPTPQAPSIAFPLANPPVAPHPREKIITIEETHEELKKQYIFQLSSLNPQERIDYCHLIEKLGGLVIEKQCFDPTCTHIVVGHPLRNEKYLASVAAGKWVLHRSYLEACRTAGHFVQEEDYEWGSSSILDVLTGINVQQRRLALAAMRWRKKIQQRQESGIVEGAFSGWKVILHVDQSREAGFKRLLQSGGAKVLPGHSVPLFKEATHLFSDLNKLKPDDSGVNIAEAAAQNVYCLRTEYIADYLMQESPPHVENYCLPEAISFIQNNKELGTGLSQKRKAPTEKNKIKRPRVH
UniProt Q8WVP5: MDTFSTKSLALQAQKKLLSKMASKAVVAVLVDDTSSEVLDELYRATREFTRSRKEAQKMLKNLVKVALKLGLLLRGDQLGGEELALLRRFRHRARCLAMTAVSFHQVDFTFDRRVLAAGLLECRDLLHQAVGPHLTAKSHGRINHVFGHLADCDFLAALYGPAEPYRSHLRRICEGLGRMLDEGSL
UniProt Q8TF74: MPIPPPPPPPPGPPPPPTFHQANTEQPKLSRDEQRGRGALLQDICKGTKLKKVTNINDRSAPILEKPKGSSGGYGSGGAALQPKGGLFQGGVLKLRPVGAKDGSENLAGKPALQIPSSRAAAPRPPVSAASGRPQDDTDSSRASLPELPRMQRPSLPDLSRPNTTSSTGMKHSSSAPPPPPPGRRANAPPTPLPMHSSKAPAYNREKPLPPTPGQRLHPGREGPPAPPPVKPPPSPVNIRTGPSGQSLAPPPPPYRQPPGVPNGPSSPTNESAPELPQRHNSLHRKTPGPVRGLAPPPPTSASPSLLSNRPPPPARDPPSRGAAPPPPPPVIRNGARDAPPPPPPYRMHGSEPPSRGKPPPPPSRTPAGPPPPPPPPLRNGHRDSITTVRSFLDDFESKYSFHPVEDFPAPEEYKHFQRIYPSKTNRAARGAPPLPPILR
UniProt Q8WXG6, whole entry, looked up: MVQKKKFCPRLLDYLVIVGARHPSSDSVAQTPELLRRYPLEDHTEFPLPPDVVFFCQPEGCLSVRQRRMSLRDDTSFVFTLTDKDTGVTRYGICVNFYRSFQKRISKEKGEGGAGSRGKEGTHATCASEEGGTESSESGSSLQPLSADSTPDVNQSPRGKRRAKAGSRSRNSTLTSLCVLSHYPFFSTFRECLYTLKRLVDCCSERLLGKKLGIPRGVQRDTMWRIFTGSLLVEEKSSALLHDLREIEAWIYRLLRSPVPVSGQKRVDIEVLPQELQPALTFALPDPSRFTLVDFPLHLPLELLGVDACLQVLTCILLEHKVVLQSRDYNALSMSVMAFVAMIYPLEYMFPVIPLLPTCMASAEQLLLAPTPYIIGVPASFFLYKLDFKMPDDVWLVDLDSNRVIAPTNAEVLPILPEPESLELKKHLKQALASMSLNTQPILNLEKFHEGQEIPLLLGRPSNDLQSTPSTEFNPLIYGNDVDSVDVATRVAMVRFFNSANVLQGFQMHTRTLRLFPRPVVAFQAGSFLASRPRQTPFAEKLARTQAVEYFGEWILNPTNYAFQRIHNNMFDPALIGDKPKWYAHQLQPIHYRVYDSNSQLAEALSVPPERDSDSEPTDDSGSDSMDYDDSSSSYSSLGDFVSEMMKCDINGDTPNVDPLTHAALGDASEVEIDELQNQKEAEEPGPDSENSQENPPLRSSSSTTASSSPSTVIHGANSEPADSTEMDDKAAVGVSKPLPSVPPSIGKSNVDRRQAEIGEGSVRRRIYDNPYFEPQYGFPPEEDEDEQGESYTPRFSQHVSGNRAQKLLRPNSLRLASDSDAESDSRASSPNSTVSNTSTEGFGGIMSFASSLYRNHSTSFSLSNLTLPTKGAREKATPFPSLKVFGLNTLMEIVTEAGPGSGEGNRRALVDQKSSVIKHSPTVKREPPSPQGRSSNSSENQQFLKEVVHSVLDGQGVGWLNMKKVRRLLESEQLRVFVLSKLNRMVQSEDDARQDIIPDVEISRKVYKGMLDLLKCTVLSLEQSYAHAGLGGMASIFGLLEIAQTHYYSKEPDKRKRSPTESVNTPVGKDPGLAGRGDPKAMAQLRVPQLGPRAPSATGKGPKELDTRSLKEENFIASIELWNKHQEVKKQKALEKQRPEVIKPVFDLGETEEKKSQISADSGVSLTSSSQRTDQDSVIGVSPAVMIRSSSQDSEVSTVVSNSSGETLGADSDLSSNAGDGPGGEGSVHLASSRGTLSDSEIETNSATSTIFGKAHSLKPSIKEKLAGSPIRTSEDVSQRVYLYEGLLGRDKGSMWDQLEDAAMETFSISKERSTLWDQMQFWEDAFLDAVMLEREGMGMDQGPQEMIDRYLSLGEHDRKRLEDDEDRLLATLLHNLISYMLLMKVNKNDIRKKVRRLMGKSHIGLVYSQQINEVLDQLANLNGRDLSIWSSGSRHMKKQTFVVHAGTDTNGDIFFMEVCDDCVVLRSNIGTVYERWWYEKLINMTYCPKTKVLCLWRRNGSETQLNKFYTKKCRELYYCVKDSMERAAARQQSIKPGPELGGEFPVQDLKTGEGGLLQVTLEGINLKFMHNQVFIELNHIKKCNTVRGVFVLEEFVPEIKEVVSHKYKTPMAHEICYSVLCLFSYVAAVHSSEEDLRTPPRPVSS
UniProt Q8TBZ6: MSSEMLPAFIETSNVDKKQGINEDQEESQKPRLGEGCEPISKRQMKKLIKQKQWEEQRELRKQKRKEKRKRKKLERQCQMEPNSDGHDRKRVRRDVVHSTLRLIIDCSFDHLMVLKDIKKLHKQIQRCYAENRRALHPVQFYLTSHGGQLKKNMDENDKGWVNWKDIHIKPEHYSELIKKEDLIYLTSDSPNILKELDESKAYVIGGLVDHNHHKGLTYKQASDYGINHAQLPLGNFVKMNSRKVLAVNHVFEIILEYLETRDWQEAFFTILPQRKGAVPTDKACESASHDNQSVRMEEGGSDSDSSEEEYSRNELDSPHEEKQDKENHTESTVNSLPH
UniProt Q92567: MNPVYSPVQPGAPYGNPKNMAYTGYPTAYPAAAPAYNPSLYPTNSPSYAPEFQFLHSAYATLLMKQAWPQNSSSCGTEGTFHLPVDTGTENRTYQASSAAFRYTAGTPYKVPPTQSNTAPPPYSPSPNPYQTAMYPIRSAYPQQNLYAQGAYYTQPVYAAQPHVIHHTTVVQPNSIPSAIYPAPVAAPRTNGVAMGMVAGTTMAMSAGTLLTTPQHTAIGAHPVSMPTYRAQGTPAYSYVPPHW
UniProt Q8WV92, whole entry: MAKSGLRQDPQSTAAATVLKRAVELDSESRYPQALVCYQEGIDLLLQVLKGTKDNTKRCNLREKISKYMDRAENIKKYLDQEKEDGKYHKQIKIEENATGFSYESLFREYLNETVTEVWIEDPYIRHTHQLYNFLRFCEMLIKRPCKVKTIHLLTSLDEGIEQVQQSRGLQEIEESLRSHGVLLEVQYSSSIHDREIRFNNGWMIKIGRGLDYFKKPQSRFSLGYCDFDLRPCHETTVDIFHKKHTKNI
UniProt Q8WU76: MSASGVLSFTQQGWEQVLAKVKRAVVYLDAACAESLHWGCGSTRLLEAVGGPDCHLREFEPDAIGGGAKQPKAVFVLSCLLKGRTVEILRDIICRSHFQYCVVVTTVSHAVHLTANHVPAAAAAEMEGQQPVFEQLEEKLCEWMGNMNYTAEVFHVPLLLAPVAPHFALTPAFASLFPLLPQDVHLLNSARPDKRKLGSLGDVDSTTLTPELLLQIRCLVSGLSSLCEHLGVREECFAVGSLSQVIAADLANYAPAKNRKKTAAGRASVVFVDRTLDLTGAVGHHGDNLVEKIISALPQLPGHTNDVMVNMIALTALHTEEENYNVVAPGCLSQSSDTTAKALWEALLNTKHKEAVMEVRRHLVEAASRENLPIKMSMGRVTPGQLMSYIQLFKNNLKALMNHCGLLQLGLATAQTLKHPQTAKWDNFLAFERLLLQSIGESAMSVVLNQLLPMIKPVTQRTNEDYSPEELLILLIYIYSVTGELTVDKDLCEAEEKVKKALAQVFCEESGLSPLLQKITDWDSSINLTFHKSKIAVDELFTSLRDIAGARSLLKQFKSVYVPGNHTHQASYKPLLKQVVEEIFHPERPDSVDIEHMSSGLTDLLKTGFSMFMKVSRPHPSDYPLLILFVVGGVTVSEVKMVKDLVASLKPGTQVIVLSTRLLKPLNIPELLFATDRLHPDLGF

Compound in the experiment: Cc1nc(Nc2ncc(C(=O)Nc3c(C)cccc3Cl)s2)cc(N2CCN(CCO)CC2)n1 [dasatinib]
The experiment is described as follows: log2 fold change of tryptic peptide abundance, ligand vs vehicle (limited proteolysis) (log2 ratio); higher = more trypsin-susceptible (destabilized). To be noted: ligand concentration: 5 uM; sample: K562 cleared lysate.
In the case of “FAR1 (peptide sequence: LIGDRPNTYIYTK, peptide start residue: 196) (UniProt Q8WVX9)”, the log2 fold change amounted to 0.17.

On to “C18orf32 (peptide sequence: KAIQESNDTNK, peptide start residue: 39) (UniProt Q8TCD1)”, for which the log2 fold change came out at 0.61.

For the target “CT55 (peptide sequence: ATSVKPIR, peptide start residue: 166) (UniProt Q8WUE5)”, the log2 fold change was determined as 0.284.

For “WDR66 (peptide sequence: YLVFINR, peptide start residue: 861) (UniProt Q8TBY9)”, the log2 fold change was -0.0458.

Take “NEK7 (peptide sequence: AACLLDGVPVALKK, peptide start residue: 51) (UniProt Q8TDX7)”: the log2 fold change is -0.171.

As to “TOPBP1 (peptide sequence: GVHIVSEHWLLDCAQECK, peptide start residue: 965) (UniProt Q92547)”, the log2 fold change was -1.11.

Consider “MRPS27 (peptide sequence: EKEHYCLADLASLMDKTFER, peptide start residue: 44) (UniProt Q92552)”, for which the log2 fold change turned out to be 0.387.

With “UniProt Q8TF30 (peptide sequence: SLDEDDLGPR, peptide start residue: 263)”, the log2 fold change is 0.199.

For “UniProt Q8WVS4 (peptide sequence: SNSFSDKGEER, peptide start residue: 245)”, the log2 fold change is -0.523.

As for “UniProt Q8WVP5 (peptide sequence: SLALQAQKK, peptide start residue: 8)”, the log2 fold change turned out to be 0.229.

For “WIPF2 (peptide sequence: YSFHPVEDFPAPEEYK, peptide start residue: 400) (UniProt Q8TF74)”, the log2 fold change was determined as 0.104.

Take “TFB1M (peptide sequence: SLCDVYRK, peptide start residue: 302) (UniProt Q8WVM0)”: the log2 fold change stood at 0.635.

Take “UniProt Q8TBF2 (peptide sequence: EHACVVAGLR, peptide start residue: 31)”: the log2 fold change worked out at 0.688.

On to “SPRYD4 (peptide sequence: LGVASTEAQR, peptide start residue: 19) (UniProt Q8WW59)”, for which the log2 fold change is -0.257.

Turning to “MADD (peptide sequence: MVQSEDDAR, peptide start residue: 986) (UniProt Q8WXG6)”, the log2 fold change came out at 0.481.

Consider “COG1 (peptide sequence: DPAALFETHGAEEIR, peptide start residue: 17) (UniProt Q8WTW3)”, for which the log2 fold change amounted to 0.806.

Regarding “NUP133 (peptide sequence: IEEMAEQER, peptide start residue: 992) (UniProt Q8WUM0)”, the log2 fold change was 0.466.

On to “TTN (peptide sequence: VTAINKAGPGK, peptide start residue: 20489) (UniProt Q8WZ42)”, for which the log2 fold change is -0.423.

As to “UniProt Q8TBZ6 (peptide sequence: NELDSPHEEK, peptide start residue: 314)”, the log2 fold change stood at 0.258.

As to “PIK3R3 (peptide sequence: TAIEAFNETIK, peptide start residue: 479) (UniProt Q92569)”, the log2 fold change came out at 0.0935.

On to “GBF1 (peptide sequence: AVGMASDIPGLHLPGGGRLPPEHGK, peptide start residue: 634) (UniProt Q92538)”, for which the log2 fold change is -0.309.

As for “UTP15 (peptide sequence: TPEITVSIIK, peptide start residue: 389) (UniProt Q8TED0)”, the log2 fold change worked out at 0.0992.

For “TBCK (peptide sequence: ICILDGGINK, peptide start residue: 870) (UniProt Q8TEA7)”, the log2 fold change is -0.191.

Take “POC1B (peptide sequence: TPHPHEEKVETVEINPK, peptide start residue: 332) (UniProt Q8TC44)”: the log2 fold change is 1.26.

For the target “UniProt Q8TCG1 (peptide sequence: KLNESLKEQNEK, peptide start residue: 764)”, the log2 fold change came to 0.48.

For “ZFPM2 (peptide sequence: GHDKDFSTQTK, peptide start residue: 641) (UniProt Q8WW38)”, the log2 fold change was -0.916.

In the case of “SYNE2 (peptide sequence: VSRFHRR, peptide start residue: 6340) (UniProt Q8WXH0)”, the log2 fold change is -0.231.

Consider “TBC1D5 (peptide sequence: SMIEQDVKR, peptide start residue: 161) (UniProt Q92609)”, for which the log2 fold change was -0.276.

As to “TSC1 (peptide sequence: SVDWTHFGGSPPSDEIR, peptide start residue: 673) (UniProt Q92574)”, the log2 fold change came out at 0.183.

For the target “MYO18A (peptide sequence: SLEEMSLRR, peptide start residue: 35) (UniProt Q92614)”, the log2 fold change was -0.499.

With “UniProt Q92567 (peptide sequence: TYQASSAAFR, peptide start residue: 93)”, the log2 fold change is -0.0325.

For “HSD17B8 (peptide sequence: VGNVGQTNYAASK, peptide start residue: 161) (UniProt Q92506)”, the log2 fold change is -0.0771.

“UniProt Q8WVR3 (peptide sequence: VLVVEPVK, peptide start residue: 573)”: the log2 fold change was -0.144.

As for “MITD1 (peptide sequence: QDPQSTAAATVLKR, peptide start residue: 8) (UniProt Q8WV92)”, the log2 fold change is -0.155.

As to “PNPT1 (peptide sequence: KVLQSPATTVVR, peptide start residue: 750) (UniProt Q8TCS8)”, the log2 fold change came out at 0.181.

For the target “SCFD2 (peptide sequence: HLVEAASR, peptide start residue: 362) (UniProt Q8WU76)”, the log2 fold change turned out to be 0.202.

As for “KIF18A (peptide sequence: ELQPIVYTPEDCRK, peptide start residue: 699) (UniProt Q8NI77)”, the log2 fold change amounted to 0.407.

These data come from the supplement of paper PMC12819154, “High-throughput peptide-centric local stability assay extends protein–ligand identification to membrane proteins, tissues and bacteria” (Nature Structural & Molecular Biology, 2025).
